This is an account of results in patent EP3539984A1.

The chains behind the UniProt entries cited, without tags or fusion partners. Where a name states a change or a piece, a line headed by the entry shows the natural chain unless it says otherwise.
UniProt P07333: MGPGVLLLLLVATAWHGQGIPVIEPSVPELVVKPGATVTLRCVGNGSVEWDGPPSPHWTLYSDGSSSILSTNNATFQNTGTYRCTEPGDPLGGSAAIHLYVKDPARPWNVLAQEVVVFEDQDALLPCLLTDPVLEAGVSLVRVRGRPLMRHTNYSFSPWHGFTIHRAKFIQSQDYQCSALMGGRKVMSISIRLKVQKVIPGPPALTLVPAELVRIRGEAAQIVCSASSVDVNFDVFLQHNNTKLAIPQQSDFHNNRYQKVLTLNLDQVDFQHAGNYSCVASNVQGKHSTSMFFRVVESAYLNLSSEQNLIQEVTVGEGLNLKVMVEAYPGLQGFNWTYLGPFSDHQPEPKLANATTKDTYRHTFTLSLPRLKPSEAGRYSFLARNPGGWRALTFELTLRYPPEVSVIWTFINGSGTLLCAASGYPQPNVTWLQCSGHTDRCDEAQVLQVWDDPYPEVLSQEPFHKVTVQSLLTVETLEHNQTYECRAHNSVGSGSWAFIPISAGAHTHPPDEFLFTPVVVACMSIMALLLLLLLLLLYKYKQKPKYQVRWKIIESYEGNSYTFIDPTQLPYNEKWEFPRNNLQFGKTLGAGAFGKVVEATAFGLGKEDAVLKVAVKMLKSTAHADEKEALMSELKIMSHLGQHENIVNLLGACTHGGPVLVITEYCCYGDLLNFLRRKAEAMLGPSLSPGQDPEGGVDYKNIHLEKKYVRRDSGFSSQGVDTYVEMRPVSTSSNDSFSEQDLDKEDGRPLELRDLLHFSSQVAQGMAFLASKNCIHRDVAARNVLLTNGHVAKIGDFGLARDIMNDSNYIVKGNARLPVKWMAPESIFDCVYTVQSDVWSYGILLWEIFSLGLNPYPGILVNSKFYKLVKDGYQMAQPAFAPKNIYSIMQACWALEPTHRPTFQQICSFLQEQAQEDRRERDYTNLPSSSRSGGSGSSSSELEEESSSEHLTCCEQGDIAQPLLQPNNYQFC

Positions count from the first letter of the chain named. Results are given in words; binding and its absence hold for the method and conditions named. Some entries that bind do so weakly or less than the wild type.

The chains are these.
B1: huAb7 (antibody, human IgG4 S228P, kappa, V domains shown)
VH: QVQLVQSGAEVKKPGSSVKVSCKASGYTFSDFNIHWVRQAPGQGLEWMGYINPYTDVTVYNEKFKGRVTITSDKSTSTAYMELSSLRSEDTAVYYCASYFDGTFDYALDYWGQGTLVTVSS
VL: EIVLTQSPATLSLSPGERATLSCRASESVDNYGLSFMNWYQQKPGQAPRLLIYTASNLESGIPARFSGSGSGTDFTLTISSLEPEDFAVYYCQQSKELPWTFGQGTKVEIKR
B2: huAb12 (antibody, human IgG4 S228P, kappa, V domains shown)
VH: B1 VH with M48I, V68A, I70L
VL: B1 VL with L4V, Y40F, G72R
B3: huAb9 (antibody, human IgG4 S228P, kappa, V domains shown)
VH: B1 VH
VL: B1 VL with L4V, Y40F, G72R
B4: huAb15 (antibody, human IgG4 S228P, kappa, V domains shown)
VH: QVQLVQSGAEVKKPGSSVKVSCKASGYIFTDYNMHWVRQAPGQGLEWMGEINPNNGVVVYNQKFKGTTTLTVDKSTSTAYMELSSLRSEDTAVYYCTRALYHSNFGWYFDSWGQGTLVTVSS
VL: B1 VL with R24K, E27Q, N31Y, Y32D, L34D, F36H, S95G, K96N, L98D
B5: huAb11 (antibody, human IgG4 S228P, kappa, V domains shown)
VH: B1 VH with M48I, V68A, I70L
VL: B1 VL with G72R
B6: huAb13 (antibody, human IgG4 S228P, kappa, V domains shown)
VH: B4 VH with T67R, T68V, L70I
VL: B1 VL with R24K, E27Q, N31Y, Y32D, L34D, F36H, S95G, K96N, L98D
B7: huAb10 (antibody, human IgG4 S228P, kappa, V domains shown)
VH: B1 VH with M48I, V68A, I70L
VL: B1 VL
B8: huAb8 (antibody, human IgG4 S228P, kappa, V domains shown)
VH: B1 VH
VL: B1 VL with G72R
B9: huAb14 (antibody, human IgG4 S228P, kappa, V domains shown)
VH: B4 VH with T67R, T68V, L70I
VL: DIVLTQSPATLSLSPGERATLSCKASQSVDYDGDSHMNWYQQKPGQAPRLLIYTASNLESGIPARFSGSGSGADFTLTISSLEPEDFAVYYCQQGNEDPWTFGQGTKVEIKR
B10: huAb16 (antibody, human IgG4 S228P, kappa, V domains shown)
VH: B4 VH
VL: B9 VL

The target of this test is human CSF1R ECD (human) (UniProt P07333). Put plainly: binding test on CSF1R ECD, as described in WO 2011/140249.
B1: the binding result is “binds”.

On to B2, for which the binding entry is “binds”.

B3: the binding result is “binds”.

Consider B4, for which the binding entry is reported as “binds”.

In the case of B5, the binding result is on record as “binds”.

In the case of B6, the binding entry is on record as “binds”.

Take B7: the binding entry was “binds”.

For the molecule B8, the binding entry was “binds”.

With B9, the binding result is “binds”.

With B10, the binding entry is “binds”.
